Results are given in words; binding and its absence hold for the method and conditions named. In cells and extracts the contact can be indirect. A result given as binding can be weak or reduced; the word gives no strength. Sequences can lack the tags named with a protein.
Biological target: HDL-YFP (Arabidopsis)
Assay: co-IP

- binding: binds
B1: KYP-FLAG (KRYPTONITE/SUPPRESSOR OF …ON 3-9 HOMOLOG 4) (enzyme, UniProt Q8GZB6 1-624)
chain: MAGKRKRANAPDQTERRSSVRVQKVRQKALDEKARLVQERVKLLSDRKSEICVDDTELHEKEEENVDGSPKRRSPPKLTAMQKGKQKLSVSLNGKDVNLEPHLKVTKCLRLFNKQYLLCVQAKLSRPDLKGVTEMIKAKAILYPRKIIGDLPGIDVGHRFFSRAEMCAVGFHNHWLNGIDYMSMEYEKEYSNYKLPLAVSIVMSGQYEDDLDNADTVTYTGQGGHNLTGNKRQIKDQLLERGNLALKHCCEYNVPVRVTRGHNCKSSYTKRVYTYDGLYKVEKFWAQKGVSGFTVYKYRLKRLEGQPELTTDQVNFVAGRIPTSTSEIEGLVCEDISGGLEFKGIPATNRVDDSPVSPTSGFTYIKSLIIEPNVIIPKSSTGCNCRGSCTDSKKCACAKLNGGNFPYVDLNDGRLIESRDVVFECGPHCGCGPKCVNRTSQKRLRFNLEVFRSAKKGWAVRSWEYIPAGSPVCEYIGVVRRTADVDTISDNEYIFEIDCQQTMQGLGGRQRRLRDVAVPMNNGVSQSSEDENAPEFCIDAGSTGNFARFINHSCEPNLFVQCVLSSHQDIRLARVVLFAADNISPMQELTYDYGYALDSVHGPDGKVKQLACYCGALNCRKRLY

— doi:10.1101/2023.09.13.557516
